{"source": "PubChem BioAssay AID1224826, NIAID – 2016", "screen": "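Knock-downs that raise or lower Tnf reporter signal after endotoxin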 (primary screen)", "system": "RAW264.7 G9 macrophages from mouse bearing reporters for p65 (GFP) and the Tnf promoter (mCherry)", "knock-down reagent": "siRNA pool against mouse genes, 100 nM", "timing": "16 h of LPS stimulation, after 2 days of siRNA transfection", "conditions": "bacterial lipopolysaccharide (Salmonella minnesota R595), 10 ng/ml", "measured": "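Imaged Tnf reporter mCherry in nuclei, minus background, normalised per plate to the median and expressed as robust z-scores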", "reading the numbers": "Tnf reporter robust z-score: higher = stronger Tnf promoter reporter signal after LPS", "rule for the call": "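Called active when robust z-score is at most -1.3, matching the median of the Tlr4 knock-down control, or over 3; control wells and wells with under 50 cells never active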", "calls": "active = Tnf reporter clearly lowered or raised; inactive = no clear change in Tnf reporter", "note": "The whole screen tested about 17,000 reagents; this is a part drawn at random. About 1,110 of them (6.6%) count as active. 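Active means lowered or raised reporter signal; replicate intensities are raw and not normalised per plate.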 Further read-outs or replicates are left out here."}
{"gene":"Fzd2 (frizzled class receptor 2)","Tnf reporter robust z-score":0.16,"fewer than 50 cells in well":"enough cells in well","outcome":"inactive"}
{"gene":"Dhrs7b (dehydrogenase/reductase 7B)","Tnf reporter robust z-score":0.21,"fewer than 50 cells in well":"enough cells in well","outcome":"inactive"}
{"gene":"Dio2 (deiodinase, iodothyronine, type II)","Tnf reporter robust z-score":-0.83,"fewer than 50 cells in well":"enough cells in well","outcome":"inactive"}
{"gene":"Dgke (diacylglycerol kinase, epsilon)","Tnf reporter robust z-score":0.87,"fewer than 50 cells in well":"enough cells in well","outcome":"inactive"}

In a second layout: entries from further up.
Dio2 (deiodinase, iodothyronine, type II) → Tnf reporter robust z-score: -0.83; fewer than 50 cells in well: enough cells in well; outcome: inactive
Dgke (diacylglycerol kinase, epsilon) → Tnf reporter robust z-score: 0.87; fewer than 50 cells in well: enough cells in well; outcome: inactive

More records:
{"gene":"Nedd1","Tnf reporter robust z-score":-0.66,"fewer than 50 cells in well":"enough cells in well","outcome":"inactive"}
{"gene":"Usp29 (ubiquitin specific peptidase 29)","Tnf reporter robust z-score":1.84,"fewer than 50 cells in well":"enough cells in well","outcome":"inactive"}
{"gene":"Cmklr2 (chemerin chemokine-like receptor 2)","Tnf reporter robust z-score":-0.6,"fewer than 50 cells in well":"enough cells in well","outcome":"inactive"}
{"gene":"Or52n20 (olfactory receptor family 52 subfamily N member 20)","Tnf reporter robust z-score":-1.09,"fewer than 50 cells in well":"enough cells in well","outcome":"inactive"}
{"gene":"Polr2c (polymerase (RNA) II (DNA directed) polypeptide C)","Tnf reporter robust z-score":1.72,"fewer than 50 cells in well":"enough cells in well","outcome":"inactive"}
{"gene":"Slc2a1","Tnf reporter robust z-score":0.3,"fewer than 50 cells in well":"enough cells in well","outcome":"inactive"}
{"gene":"Flywch1 (FLYWCH-type zinc finger 1)","Tnf reporter robust z-score":-0.06,"fewer than 50 cells in well":"enough cells in well","outcome":"inactive"}
{"gene":"Plxnb1 (plexin B1)","Tnf reporter robust z-score":-0.57,"fewer than 50 cells in well":"enough cells in well","outcome":"inactive"}
{"gene":"Rbm47 (RNA binding motif protein 47)","Tnf reporter robust z-score":0.87,"fewer than 50 cells in well":"enough cells in well","outcome":"inactive"}
{"gene":"Spg21 (SPG21, maspardin)","fewer than 50 cells in well":"fewer than 50 cells per well; well left out of calls","outcome":"inactive"}
